This note sets out measurements from patent US12653181B2, “Control of ripening and senescence in pre-harvest and post-harvest plants and plant materials by manipulating alternative oxidase activity” (Washington State University, priority 2012, dated 2026).

One data set deals with 1-MCP pre-treated fruit. Put plainly: Large scale consumer trial 2016 (overall liking). Also noted: species or system pear.
Data set [1] relates to sliced 1-MCP pre-treated pear fruit. Put plainly: Consumer preference trials 2014 and 2015 of sliced 1-MCP fruit treated with glyoxylic acid. The following applies: rank among 4 samples.

On to `O=CC(=O)O` [glyoxylic acid], for which the “Percentage of panelists who rated the sample as 1 (most preferred)” value is on record as “(18%)” in the data set with 1-MCP pre-treated fruit (1% RC), “(35%)” in the data set with 1-MCP pre-treated fruit (2% RC) and “(28%)” with 1-MCP pre-treated fruit (3% RC). In addition, the figures for the “Percentage of panelists who rated the sample as 2” value with 1-MCP pre-treated fruit (1% RC), in the data set with 1-MCP pre-treated fruit (2% RC) and in the data set with 1-MCP pre-treated fruit (3% RC) were “(24%)”, “(19%)” and “(32%)”, respectively. Besides, the figures for the “Percentage of panelists who rated the sample as 3” value in the data set on 1-MCP pre-treated fruit (1% RC), in the data set on 1-MCP pre-treated fruit (2% RC) and with 1-MCP pre-treated fruit (3% RC) were “(30%)”, “(24%)” and “(20%)”, respectively. The “Percentage of panelists who rated the sample as 4 (least preferred)” value was “(28%)” in the data set on 1-MCP pre-treated fruit (1% RC), “(22%)” in the data set with 1-MCP pre-treated fruit (2% RC) and “(20%)” in the data set on 1-MCP pre-treated fruit (3% RC). The Appearance ranking entry in data set [1] (1% RC, 2014) is reported as “↓”; in data set [1] (2% RC, 2014), “↓”; in data set [1] (2% RC, 2015 - Anjou) it was “↓”. Further, the Taste/Flavor ranking entry in data set [1] (1% RC, 2015 - Anjou) is listed as “↓”; in data set [1] (2% RC, 2015 - Anjou), “↓”; in data set [1] (3% RC, 2014), “↓”. Besides, the Texture ranking entry in data set [1] (1% RC, 2015 - Anjou) is given as “↓”; in data set [1] (2% RC, 2014), “↓”; in data set [1] (2% RC, 2015 - Anjou) it was “↓”. For the same molecule, the Overall acceptance ranking entry in data set [1] (2% RC, 2015 - Anjou) was “↓”; in data set [1] (3% RC, 2014) it was “↓”.
